Record: PubChem BioAssay AID504791 (Drosophila RNAi Screening Center, 2011)

Aim: 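Factors in Argonaute-based small RNA production and activity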 (primary screen)
Cells: Drosophila S2-derived reporter cells
Reagent: long dsRNA against Drosophila genes, about 150-250 ng dsRNA per well (siRNA assay); about 80-120 ng (miRNA assay)
Timing: about 5 days (siRNA assay); about 4 days (miRNA assay)
Challenge: copper sulfate induction of reporters: 25 µM (siRNA assay); 200 mM stated (miRNA assay), 1-2 days before reading
Measured: 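Per-well ratio of Renilla over firefly light, expressed relative to that plate's average ratio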
Scale: siRNA reporter hit score: higher = 3 marks a strong hit with raised ratio; -3 a strong hit with lowered ratio
Call rule: 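First-pass picks had plate-scaled ratios over 1.5 for the siRNA assay, over 1.6 for the miRNA assay, or under 0.6; two distinct dsRNAs had to score alike on retest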
The deposit covers about 23,000 reagents; below is an unselected part of those that have a named target and a result. Of all reagents, 199 (0.86%) are marked active. 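Plate-scaled ratios behind the calls are not deposited; printed light signals are raw; many rows marked increased or decreased are still called inactive.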 Reagents against one gene are numbered here. A plus sign joins genes that one reagent is predicted to hit. Reagent sequences are not shown.

{"predicted target":"CG3251","reagent no.":1,"stable assay Renilla, run 1 (luminescence)":11056,"stable assay firefly, run 1 (luminescence)":6.49e5,"activity call":"inactive"}
{"predicted target":"MsR2 + CG13802 (retired record)","reagent no.":1,"stable assay Renilla, run 1 (luminescence)":6499,"stable assay firefly, run 1 (luminescence)":4.30e5,"activity call":"inactive"}
{"predicted target":"MsR2 + CG13802 (retired record)","reagent no.":2,"stable assay Renilla, run 1 (luminescence)":6383,"stable assay firefly, run 1 (luminescence)":4.14e5,"activity call":"inactive"}
{"predicted target":"MsR2 + CG13802 (retired record)","reagent no.":3,"stable assay Renilla, run 1 (luminescence)":4584,"stable assay firefly, run 1 (luminescence)":4.23e5,"activity call":"inactive"}
{"predicted target":"EMC5","reagent no.":1,"stable assay Renilla, run 1 (luminescence)":6028,"stable assay firefly, run 1 (luminescence)":4.37e5,"activity call":"inactive"}
{"predicted target":"slmo + CG34179","reagent no.":1,"miRNA reporter change":"reporter ratio raised past the hit cutoff","stable assay Renilla, run 1 (luminescence)":3.11e5,"stable assay firefly, run 1 (luminescence)":5.97e5,"activity call":"inactive"}
{"predicted target":"CG3515","reagent no.":1,"siRNA reporter hit score":-3,"stable assay Renilla, run 1 (luminescence)":8404,"stable assay firefly, run 1 (luminescence)":3.82e5,"activity call":"inactive"}
{"predicted target":"ttm3","reagent no.":1,"stable assay Renilla, run 1 (luminescence)":7695,"stable assay firefly, run 1 (luminescence)":4.84e5,"activity call":"inactive"}

No new results follow: an excerpt of the list.
{"predicted target":"MsR2 + CG13802 (retired record)","reagent no.":2,"stable assay Renilla, run 1 (luminescence)":6383,"stable assay firefly, run 1 (luminescence)":4.14e5,"activity call":"inactive"}
{"predicted target":"MsR2 + CG13802 (retired record)","reagent no.":3,"stable assay Renilla, run 1 (luminescence)":4584,"stable assay firefly, run 1 (luminescence)":4.23e5,"activity call":"inactive"}

Further entries follow:
{"predicted target":"CG32755","reagent no.":1,"stable assay Renilla, run 1 (luminescence)":5327,"stable assay firefly, run 1 (luminescence)":2.92e5,"activity call":"inactive"}
{"predicted target":"unc-13","reagent no.":1,"stable assay Renilla, run 1 (luminescence)":7822,"stable assay firefly, run 1 (luminescence)":4.28e5,"activity call":"inactive"}
{"predicted target":"unc-13","reagent no.":2,"stable assay Renilla, run 1 (luminescence)":7783,"stable assay firefly, run 1 (luminescence)":4.09e5,"activity call":"inactive"}
{"predicted target":"unc-13","reagent no.":3,"stable assay Renilla, run 1 (luminescence)":6859,"stable assay firefly, run 1 (luminescence)":4.47e5,"activity call":"inactive"}
